# According to article PMC11764061:
# By UniProt entry, the sequences of proteins in these tests, tags left out. Residues count along the entry.
# UniProt Q8IJK2, residues 1-118: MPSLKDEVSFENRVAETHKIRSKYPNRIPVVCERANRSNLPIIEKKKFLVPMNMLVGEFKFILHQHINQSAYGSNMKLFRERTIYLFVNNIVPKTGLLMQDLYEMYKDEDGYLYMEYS
# UniProt C0H519: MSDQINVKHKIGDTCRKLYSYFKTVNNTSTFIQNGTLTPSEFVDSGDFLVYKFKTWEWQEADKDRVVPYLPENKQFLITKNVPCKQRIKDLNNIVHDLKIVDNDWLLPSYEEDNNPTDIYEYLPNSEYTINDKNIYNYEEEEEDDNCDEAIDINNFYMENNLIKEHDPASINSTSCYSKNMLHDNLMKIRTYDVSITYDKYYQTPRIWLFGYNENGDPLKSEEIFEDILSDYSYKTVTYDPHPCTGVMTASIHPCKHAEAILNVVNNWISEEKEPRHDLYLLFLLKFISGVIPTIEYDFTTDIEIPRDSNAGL
# No constants are given. Whether binding was seen depends on the method and setting. Some entries that bind do so weakly or less than the wild type.
# Molecular target: FLAG-PfATG8 (Plasmodium falciparum) (UniProt Q8IJK2)
# Assay: AlphaScreen or HTRF; AlphaScreen: 0.5 µL biotin-ATG3 and 0.125 µL FLAG-ATG8 (total fractions of wheat germ translation mixtures) in 100 mM Tris-HCl pH 8.0, 0.1% Tween-20, 1 mg/mL BSA, 26 °C 1 h; streptavidin donor beads, protein A acceptor beads with anti-FLAG M2 antibody
substance,measurement,value
biotin-PfATG3 (from UniProt C0H519 1-313),binding,binds
